These are yes or no findings as the source states them, for the method shown. For some of these results: In cells and extracts the contact can be indirect. Some entries that bind do so weakly or less than the wild type. For some of these results: Where a sequence is shown, tags or fusion partners need not be part of it.
Experiments:
[1] = molecular target: T1, Heme detoxification protein from Plasmodium falciparum, full length (HDPpf) (Plasmodium falciparum) (UniProt Q8IL04); test: SAXS
T1 sequence: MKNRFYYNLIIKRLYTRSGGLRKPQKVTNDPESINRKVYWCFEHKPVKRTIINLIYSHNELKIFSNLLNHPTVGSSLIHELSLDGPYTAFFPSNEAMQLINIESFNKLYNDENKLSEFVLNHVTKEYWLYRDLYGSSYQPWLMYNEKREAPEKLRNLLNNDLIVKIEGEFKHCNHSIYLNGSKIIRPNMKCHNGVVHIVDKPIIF

Sequences of proteins named here, by UniProt entry; tags and fusion partners are left off.
UniProt P0A6Y8, whole entry: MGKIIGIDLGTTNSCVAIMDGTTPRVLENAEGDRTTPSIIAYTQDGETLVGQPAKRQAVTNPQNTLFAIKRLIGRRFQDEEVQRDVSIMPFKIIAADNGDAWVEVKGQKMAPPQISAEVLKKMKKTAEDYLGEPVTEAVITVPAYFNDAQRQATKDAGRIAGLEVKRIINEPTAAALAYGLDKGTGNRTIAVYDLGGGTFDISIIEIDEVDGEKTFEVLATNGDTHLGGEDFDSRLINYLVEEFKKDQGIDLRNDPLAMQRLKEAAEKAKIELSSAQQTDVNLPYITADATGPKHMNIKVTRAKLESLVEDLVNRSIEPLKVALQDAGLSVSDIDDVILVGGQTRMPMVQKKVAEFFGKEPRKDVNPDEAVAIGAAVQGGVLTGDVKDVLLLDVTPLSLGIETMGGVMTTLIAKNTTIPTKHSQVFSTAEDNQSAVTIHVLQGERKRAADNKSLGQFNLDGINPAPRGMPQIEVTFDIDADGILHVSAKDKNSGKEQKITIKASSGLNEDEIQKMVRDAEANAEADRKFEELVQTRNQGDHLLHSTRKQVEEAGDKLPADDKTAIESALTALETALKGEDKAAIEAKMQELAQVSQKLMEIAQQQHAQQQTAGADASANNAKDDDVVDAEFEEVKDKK
UniProt P0A6F5, whole entry: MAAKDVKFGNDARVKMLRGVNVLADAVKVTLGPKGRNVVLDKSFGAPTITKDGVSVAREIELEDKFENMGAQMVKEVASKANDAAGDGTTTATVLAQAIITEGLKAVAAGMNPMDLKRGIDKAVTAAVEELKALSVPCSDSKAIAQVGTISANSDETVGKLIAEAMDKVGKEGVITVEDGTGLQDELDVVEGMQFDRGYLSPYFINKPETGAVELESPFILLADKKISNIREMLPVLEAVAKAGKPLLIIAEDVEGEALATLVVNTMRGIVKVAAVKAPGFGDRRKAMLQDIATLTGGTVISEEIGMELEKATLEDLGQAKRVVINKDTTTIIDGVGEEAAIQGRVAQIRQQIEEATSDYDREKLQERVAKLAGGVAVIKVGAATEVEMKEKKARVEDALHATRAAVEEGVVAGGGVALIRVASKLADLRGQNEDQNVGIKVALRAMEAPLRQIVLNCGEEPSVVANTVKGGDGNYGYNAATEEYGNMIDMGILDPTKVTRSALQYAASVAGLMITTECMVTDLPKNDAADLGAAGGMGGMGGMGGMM

[2] = molecular target: T1, Heme detoxification protein from Plasmodium falciparum, full length (HDPpf) (Plasmodium falciparum); test: SEC
[3] = molecular target: T2, MBP-HDPpf fusion protein (Plasmodium falciparum) (UniProt Q8IL04); test: ion exchange and hydrophobic interaction chromatography
T2 sequence: T1 sequence

[4] = molecular target: T2, MBP-HDPpf fusion protein (Plasmodium falciparum); test: SEC
[5] = molecular target: T3, HDPpf-GFP fusion protein (HDP-TEV-GFP-6His) (Plasmodium falciparum) (UniProt Q8IL04); test: co-elution in anion exchange chromatography
T3 sequence: T1 sequence

[6] = molecular target: T2, MBP-HDPpf fusion protein (Plasmodium falciparum); test: pull-down
[7] = molecular target: T3, HDPpf-GFP fusion protein (HDP-TEV-GFP-6His) (Plasmodium falciparum); test: pull-down

Measured: binding

DnaK (HSP70 chaperone) (from UniProt P0A6Y8 1-638)
binds: [1] | [2]

GroEL (HSP60 chaperonin) (from UniProt P0A6F5 1-548)
not listed: [1] | [2]
binds: all other assays above
